Assay results as given in paper PMC3540817, “Transfer of a Redox-Signal through the Cytosol by Redox-Dependent Microcompartmentation of Glycolytic Enzymes at Mitochondria and Actin Cytoskeleton” (Frontiers in Plant Science, 2012).
No constants are given. Whether binding was seen depends on the method and setting.

Target: TOM40
Assay: far-Western, overlay or dot blot; VDAC3 in liposomes (controls: empty liposomes, TOM40) spotted on nitrocellulose, overlaid with 100 μg/ml aldolase without reductant (oxidized); anti-aldolase antibody; both purified

B1: recombinant cytosolic fructose 1,6-bisphosphate aldolase (FBA6, At2g36460) (enzyme, A. thaliana, UniProt Q9SJQ9 1-358, looked up)
chain: MSSFTSKFADELIANAAYIGTPGKGILAADESTGTIGKRLASINVENVESNRRALRELLFTTPGALPCLSGVILFEETLYQKSSDGTPFVDMLKSAGVLPGIKVDKGTVELAGTNGETTTQGLDGLGDRCKKYYEAGARFAKWRAVLKIGVNEPSQLAIHENAYGLARYAVICQENGLVPIVEPEILVDGSHDIQKCAAVTERVLAACYKALSDHHVLLEGTLLKPNMVTPGSESAKVAPEVIAEHTVRALQRTVPAAVPAIVFLSGGQSEEEATRNLNAMNQLKTKKPWSLSFSFGRALQQSTLKTWGGKEENVKKAQEAFLVRCKANSEATLGAYKGDAKLGEGAAESLHVKDYKY
notes: cytosolic fructose 1,6-bisphosphate aldolase FBA6, A. thaliana, At2g36460; Redox reagents were added to the mixtures; no modified residues are named; the redox state is told by the assay; source: recombinant, purified
B1 was tested, and the binding was “no binding (tested: 100 μg/ml)”.
